Data as given in patent US20040001842A1.
These are yes or no findings as the source states them, for the method shown. Some results given as binding are weak or reduced against the parent protein; the word gives no strength. Sequences can lack the tags named with a protein.

Amino acid sequences for entries named in this document (tags omitted). A change or cut given only in a name is not applied to a line headed by its entry.
UniProt P01350: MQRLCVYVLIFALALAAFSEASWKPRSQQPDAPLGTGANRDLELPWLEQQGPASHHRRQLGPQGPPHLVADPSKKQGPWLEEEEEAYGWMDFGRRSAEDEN

What was measured:
[1] = target: T1, CCK-B/gastrin receptor on AR42J cells (rat pancreatic adenocarcinoma) (rat) (UniProt P30553); assay: confocal microscopy of AR42J cells
T1 sequence (looked up): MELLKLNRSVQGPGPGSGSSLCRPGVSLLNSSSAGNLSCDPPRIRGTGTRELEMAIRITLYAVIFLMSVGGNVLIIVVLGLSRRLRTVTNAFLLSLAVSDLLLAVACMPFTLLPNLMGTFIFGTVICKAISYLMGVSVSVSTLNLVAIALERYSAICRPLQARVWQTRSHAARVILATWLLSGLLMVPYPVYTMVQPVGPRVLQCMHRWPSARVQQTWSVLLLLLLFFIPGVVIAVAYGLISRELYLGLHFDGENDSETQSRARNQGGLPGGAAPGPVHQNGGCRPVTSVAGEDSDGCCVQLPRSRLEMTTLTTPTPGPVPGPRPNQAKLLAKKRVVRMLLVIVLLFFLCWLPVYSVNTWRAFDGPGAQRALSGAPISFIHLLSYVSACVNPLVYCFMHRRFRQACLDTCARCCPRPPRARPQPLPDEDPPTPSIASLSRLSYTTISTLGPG

[2] = target: T1, CCK-B/gastrin receptor on AR42J cells (rat pancreatic adenocarcinoma) (rat); assay: confocal fluorescence microscopy of AR42J cells
[3] = target: T2, human CCK-B/gastrin receptor (human) (UniProt P32239); assay: confocal fluorescence microscopy of HepG2, C170HM2 and transfected NIH3T3 cells
T2 sequence (looked up): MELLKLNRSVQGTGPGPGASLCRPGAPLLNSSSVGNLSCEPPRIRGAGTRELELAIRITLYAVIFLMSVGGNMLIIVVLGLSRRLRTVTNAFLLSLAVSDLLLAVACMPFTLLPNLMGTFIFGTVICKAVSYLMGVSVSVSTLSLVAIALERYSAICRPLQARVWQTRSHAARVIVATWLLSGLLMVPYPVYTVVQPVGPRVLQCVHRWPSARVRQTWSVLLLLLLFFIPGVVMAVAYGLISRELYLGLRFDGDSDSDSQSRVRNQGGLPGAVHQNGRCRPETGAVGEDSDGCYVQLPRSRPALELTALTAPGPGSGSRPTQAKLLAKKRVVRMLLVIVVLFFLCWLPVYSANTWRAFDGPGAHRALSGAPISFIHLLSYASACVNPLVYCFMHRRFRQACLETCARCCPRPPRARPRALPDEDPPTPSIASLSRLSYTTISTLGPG

Measured: binding

B1: rhodal green labeled heptagastrin (ligand, UniProt P01350 86-92, looked up)
peptide: AYGWMDF
modifications: rhodal green label
binds: all assays above
